Reference: PubChem BioAssay AID1259400 (National Center for Advancing Translational Sciences (NCATS), 2018)
Shown are results outside the selection of hits, which stands elsewhere.

The chains behind the UniProt entries cited, without tags or fusion partners. Where a name states a change or a piece, a line headed by the entry shows the natural chain unless it says otherwise.
UniProt Q9HBX9: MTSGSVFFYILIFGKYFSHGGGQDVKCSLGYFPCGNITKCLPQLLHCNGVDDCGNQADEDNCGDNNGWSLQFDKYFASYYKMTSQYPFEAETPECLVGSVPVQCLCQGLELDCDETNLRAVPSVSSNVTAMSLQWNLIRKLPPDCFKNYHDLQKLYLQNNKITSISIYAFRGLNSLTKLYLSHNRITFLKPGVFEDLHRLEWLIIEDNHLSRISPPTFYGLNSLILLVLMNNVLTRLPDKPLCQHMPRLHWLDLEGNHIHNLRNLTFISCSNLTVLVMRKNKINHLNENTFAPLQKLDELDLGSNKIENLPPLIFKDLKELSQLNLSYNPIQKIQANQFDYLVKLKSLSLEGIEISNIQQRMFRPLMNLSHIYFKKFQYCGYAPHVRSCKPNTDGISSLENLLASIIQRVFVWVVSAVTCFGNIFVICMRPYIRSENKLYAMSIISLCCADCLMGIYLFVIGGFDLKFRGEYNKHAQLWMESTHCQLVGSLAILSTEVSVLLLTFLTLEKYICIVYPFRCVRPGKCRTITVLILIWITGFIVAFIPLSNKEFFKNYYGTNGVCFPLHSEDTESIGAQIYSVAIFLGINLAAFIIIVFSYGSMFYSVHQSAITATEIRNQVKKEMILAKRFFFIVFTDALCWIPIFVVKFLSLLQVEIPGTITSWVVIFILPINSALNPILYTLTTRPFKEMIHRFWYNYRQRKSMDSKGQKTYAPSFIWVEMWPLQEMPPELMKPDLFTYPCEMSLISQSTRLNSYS

Target: Relaxin receptor 1 (Homo sapiens) (UniProt Q9HBX9)
Test: qHTS Assay for Antagonists of the Relaxin Receptor RXFP1
Conditions: HEK293-RXFP1, relaxin-stimulated cAMP HTRF, 30 min; at 57.5 µM; stronger effect = lower value
From the text: The relaxin hormone is involved in the variety of biological functions in normal tissues and diseases. The role of relaxin is well-established in female reproduction and parturition, mammary gland and endometrial development, maintenance of myometrial quiescence during pregnancy. Relaxin signaling through its G protein-coupled receptor (GPCR) RXFP1 results in ECM remodeling through regulation of collagen deposition, cell invasiveness, proliferation and overall tissue homeostasis. […] Recombinant human relaxin (rhRlx) is currently being tested in clinical trials as a protective agent in congestive heart failure, in treating severe preeclampsia, and as an anti-fibrotic agent in various organs. […] Upon relaxin binding RXFP1 activation leads to the activation of adenylate cyclase (AC) via G?s. cAMP will activate PKA, which phosphorylates many signaling proteins. […] RXFP1 activation by relaxin in presence of various concentrations of tested compounds was assayed by changes in cAMP levels as detected with a time-resolved fluorescence energy transfer (TR-FRET) cAMP detection kit.
For the primary screening, we used HTRF(R) (Homogenous Time-Resolved Fluorescence) cAMP HiRange assay (Cisbio Bioassays, 62AM6PEJ). […] The EC50 values were determined from concentration-response data modeled with the standard Hill equation. […]
On the % scale 0 is the no-effect control and ±100 the full control effect.

| SMILES | activity change, negative = inhibition |
| --- | --- |
| Nc1ccc(N)c([N+](=O)[O-])c1 | -147% |
